No constants are given. Whether binding was seen depends on the method and setting. Binding seen in cells or lysates may run through a third protein. These calls come from enrichment with a bait or labelling near it, and not all partners need be listed.
Biological target: GST-KIF17b-CTD (C-terminal domain of KIF17b) (mouse)
Assay: affinity purification with mass spectrometry; purified GST-KIF17b-CTD on glutathione-Sepharose beads as bait, incubated with testes lysate; cargo identified by 1D LC-MS; only the target purified

B1: MVH (endogenous, mouse testes) (protein, UniProt Q61496 1-702)
chain: MGDEDWEAEILKPHVSSYVPVFEKDKYSSGANGDTFNRTSASSDIGESSKKENTSTTGGFGRGKGFGNRGFLNNKFEEGDSSGFWKESNNDCEDNQTRSRGFSKRGGCQDGNDSEASGPFRRGGRGSFRGCRGGFGLGRPNSESDQDQGTQRGGGLFGSRKPAASDSGNGDTYQSRSGSGRGGYKGLNEEVVTGSGKNSWKSETEGGESSDSQGPKVTYIPPPPPEDEDSIFAHYQTGINFDKYDTILVEVSGHDAPPAILTFEEANLCQTLNNNIAKAGYTKLTPVQKYSIPIVLAGRDLMACAQTGSGKTAAFLLPILAHMMRDGITASRFKELQEPECIIVAPTRELINQIYLEARKFSFGTCVRAVVIYGGTQFGHSVRQIVQGCNILCATPGRLMDIIGKEKIGLKQVKYLVLDEADRMLDMGFGPEMKKLISCPGMPSKEQRQTLLFSATFPEEIQRLAGDFLKSSYLFVAVGQVGGACRDVQQTILQVGQYSKREKLVEILRNIGDERTMVFVETKKKADFIATFLCQEKISTTSIHGDREQREREQALGDFRCGKCPVLVATSVAARGLDIENVQHVINFDLPSTIDEYVHRIGRTGRCGNTGRAISFFDTDSDNHLAQPLVKVLSDAQQDVPAWLEEIAFSTYVPPSFSSSTRGGAVFASVDTRKNYQGKHTLNTAGISSSQAPNPVDDESWD
Question: How did the binding turn out when B1 was run?
Answer: binds
